Earlier results in publication PMC10046020, “In Silico Screening and Optimization of Cell-Penetrating Peptides Using Deep Learning Methods” (Biomolecules, 2023).

Details: Spreadsheet S1: 150 CPP and 150 non-CPP peptides collected from CellPPD, MLCPP, CPPsite 2.0, Lifetein and other publications; cited from earlier work
Text: Supplement biomolecules-13-00522-s001.zip/biomolecules-2162660_Supplementary Spreadsheets S1 Test Set.csv, table | column: class || Supplement biomolecules-13-00522-s001.zip/biomolecules-2162660_Supplementary Spreadsheets S2 Train Set.csv, table | column: class

With GLFEAIEGFIENGWEGMIDGWYGGGGRRRRRRRRRK as the sequence, how does the “class (CPP / Non-CPP), Test Set” value read?
Its value is “CPP”.
